Data published in publication PMC4907692, “Engineering vanilloid-sensitivity into the rat TRPV2 channel” (eLife, 2016).
Results are given in words; binding and its absence hold for the method and conditions named.

Chains of the proteins cited; added tags and fusions are not shown. Residues count along the entry.
UniProt O35433, residues 431-575: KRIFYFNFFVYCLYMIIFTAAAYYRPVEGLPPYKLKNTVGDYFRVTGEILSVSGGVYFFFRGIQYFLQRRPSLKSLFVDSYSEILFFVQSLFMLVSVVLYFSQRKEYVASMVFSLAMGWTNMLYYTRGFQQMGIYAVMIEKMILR

Molecular target: GFP-tagged TRPV1 S1-S4 domain (rat) (UniProt O35433)
Assay: SEC

“GFP-tagged TRPV1 S1-S4 domain (from UniProt O35433 431-575) (domain or fragment)” was tested. Which binding did it give?
Its binding is “no binding”.
